Reference: PubChem BioAssay AID720505 (Drosophila RNAi Screening Center, 2013)

Test: 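Fly regulators or components of the CRAC channel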 (primary screen)
Cells: Drosophila S2R+ cells
Knock-down reagent: long dsRNA against Drosophila genes
Challenge: thapsigargin (2 µM) in calcium-free buffer to empty internal stores, then 2 mM calcium added back
Detection: 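Stores emptied by 2 µM thapsigargin without calcium, then 2 mM calcium re-added; fluo-4 fluorescence followed by FLIPR in 384-well plates, per-well averaged endpoint, raw; two screen passes, some wells retested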
Reading the numbers: calcium signal and retest calcium signal: higher = more calcium entry after store depletion
Call rule: 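About 1500 genes called as lowering calcium entry, by varying amounts, judged against per-plate control wells with STIM1 as positive and Rho1 as negative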
Meaning of the calls: active = called as lowering calcium entry; inactive = not called
The screen tested about 20,000 reagents; shown is an unselected part of those that have a named target and a result. In the full data, about 2,100 (10%) were called active. 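Raw plate signals without normalisation; calls rest on control-based scores that were not deposited; replicate 2 separates called from uncalled poorly.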 Names joined by + are all predicted targets of the reagent. No sequences are given here. Not stated in the record: the amount of reagent, the time to read-out.

| Target gene | DRSC id | calcium signal, replicate 1 | calcium signal, replicate 2 | retest calcium signal, replicate 1 | retest calcium signal, replicate 2 | Call |
| --- | --- | --- | --- | --- | --- | --- |
| Cip4 | DRSC08469 | 108 | 109 | – | – | inactive |
| Cip4 | DRSC21740 | 121 | 98.9 | – | – | inactive |
| Doc3 | DRSC10480 | 103 | 70.1 | – | – | inactive |
| fz | DRSC11348 | 81.2 | 196 | – | – | inactive |
| Snoo | DRSC01008 | 164 | 105 | – | – | inactive |
| Snoo | DRSC03004 | 170 | 186 | – | – | inactive |
| Snoo | DRSC03035 | 102 | 118 | – | – | inactive |
| Graf | DRSC20131 | 164 | 134 | – | – | inactive |
| Cyp6u1 | DRSC05015 | 152 | 78.9 | – | – | inactive |
| tctn + B9d2 | DRSC03160 | 148 | 110 | – | – | inactive |
| CG3492 | DRSC04373 | 170 | 119 | – | – | inactive |
| Inx6 | DRSC20579 | 80.3 | 114 | – | – | inactive |
| Muc68D | DRSC10569 | 117 | 116 | – | – | inactive |
| CG15561 | DRSC15100 | 170 | 123 | – | – | inactive |
| Pis | DRSC20178 | 108 | 110 | – | – | inactive |
| CG4741 | DRSC04228 | 134 | 171 | – | – | inactive |
| CG4741 | DRSC04485 | 137 | 222 | – | – | inactive |
| CG3198 | DRSC18292 | 217 | 145 | – | – | inactive |
| mu2 | DRSC08726 | 146 | 101 | – | – | inactive |
| mu2 | DRSC21534 | 149 | 83.2 | – | – | inactive |
| CG31636 | DRSC02276 | 110 | 131 | – | – | inactive |
| Git | DRSC06620 | 193 | 156 | – | – | inactive |
| CG18661 | DRSC02690 | 120 | 144 | – | – | inactive |
| Mms19 | DRSC12188 | 58.8 | 114 | – | – | active |
| CG14131 | DRSC10135 | 37.9 | 74.2 | – | – | inactive |
| EloC | DRSC07423 | 135 | 132 | – | – | inactive |
| Pgam5-2 | DRSC04278 | 177 | 163 | – | – | inactive |
| CG10939 | DRSC06019 | 123 | 119 | – | – | inactive |
| CG10939 | DRSC21734 | 102 | 118 | – | – | inactive |
| CG14352 | DRSC00382 | 233 | 128 | – | – | inactive |
| ChLD3 | DRSC02640 | 57.6 | 83.3 | – | – | active |
| CG31419 | DRSC15771 | 147 | 124 | – | – | inactive |
| put | DRSC17039 | 106 | 123 | – | – | inactive |
| sordd2 + sordd1 | DRSC20136 | 118 | 130 | – | – | inactive |
| CG30022 | DRSC22405 | 96.6 | 143 | – | – | inactive |
| Acp53C14a | DRSC07224 | 156 | 137 | – | – | inactive |
| CG11617 | DRSC00321 | 186 | 125 | – | – | inactive |
| CG11617 | DRSC21786 | 76.7 | 169 | – | – | active |
| CG6724 | DRSC02983 | 135 | 105 | – | – | inactive |
| Membrin | DRSC10448 | 121 | 86.5 | – | – | inactive |
| CG42367 | DRSC21388 | 123 | 92.3 | – | – | inactive |
| SP1173 | DRSC11277 | 65 | 85.5 | – | – | active |
| Nup75 | DRSC06947 | 124 | 105 | – | – | inactive |
| Noc1 | DRSC10921 | 111 | 103 | – | – | inactive |
| RpL10Aa | DRSC15518 | 145 | 192 | – | – | inactive |
| CG8944 | DRSC20128 | 157 | 104 | 5955 | 142 | inactive |
| CG8944 | DRSC21342 | 123 | 119 | – | – | inactive |
| Gs1l | DRSC00754 | 109 | 115 | – | – | inactive |
| gus | DRSC04885 | 172 | 120 | – | – | inactive |
| gus | DRSC04886 | 83 | 121 | 151 | 101 | active |
| CG7611 | DRSC11840 | 68.2 | 44.2 | 99.6 | 96.8 | active |
| nudE | DRSC10962 | 94.7 | 102 | – | – | inactive |
| CG7970 | DRSC08605 | 197 | 110 | – | – | inactive |
| Obp19d | DRSC20569 | 142 | 80 | – | – | inactive |
| ari-1 | DRSC20308 | 102 | 127 | – | – | inactive |
| ari-1 | DRSC21603 | 159 | 104 | – | – | inactive |
| CG14357 | DRSC14820 | 122 | 137 | – | – | inactive |
| eca | DRSC22290 | 75.6 | 158 | – | – | inactive |
| eRF1 | DRSC11779 | 113 | 107 | – | – | inactive |
| Pglym78 | DRSC16787 | 89 | 106 | – | – | inactive |
| GstE11 | DRSC06926 | 141 | 94.9 | – | – | inactive |
| Scsalpha1 | DRSC08698 | 133 | 112 | – | – | inactive |
| Strn-Mlck | DRSC05032 | 135 | 121 | – | – | inactive |
| Strn-Mlck | DRSC05598 | 68 | 80.4 | – | – | active |
| Strn-Mlck | DRSC06571 | 117 | 112 | – | – | inactive |
| Strn-Mlck | DRSC07471 | 93 | 77 | – | – | inactive |
| kcc | DRSC04316 | 117 | 84.8 | – | – | inactive |
| kcc | DRSC04516 | 143 | 242 | – | – | inactive |
| Tina-1 | DRSC04317 | 56.3 | 93.6 | – | – | active |
| aurB | DRSC03548 | 78.2 | 112 | – | – | inactive |
| aurB | DRSC23324 | 102 | 142 | – | – | inactive |
| Gpo2 | DRSC06822 | 128 | 162 | – | – | inactive |
| Sema1b | DRSC07550 | 107 | 102 | – | – | inactive |
| CG5335 | DRSC06931 | 72.8 | 150 | – | – | active |
| ImpE3 | DRSC16716 | 106 | 166 | – | – | inactive |
| dpn | DRSC07605 | 133 | 111 | – | – | inactive |
| CG11581 | DRSC19407 | 118 | 122 | – | – | inactive |
| EMC2B | DRSC15506 | 124 | 143 | – | – | inactive |
| Ilp1 | DRSC10174 | 57.4 | 92.3 | – | – | active |
| RpL12 | DRSC04344 | 42.7 | 115 | – | – | active |
| twr | DRSC12491 | 138 | 169 | – | – | inactive |
| His3.3B | DRSC17773 | 73.2 | 83.5 | – | – | inactive |
| His3.3B | DRSC18673 | 49.9 | 93.9 | – | – | inactive |

Limited to “calcium signal, replicate 1” (9 entries from above):
tctn + B9d2 [DRSC03160] = 148
CG3492 [DRSC04373] = 170
Inx6 [DRSC20579] = 80.3
Muc68D [DRSC10569] = 117
CG15561 [DRSC15100] = 170
Pis [DRSC20178] = 108
CG4741 [DRSC04228] = 134
CG4741 [DRSC04485] = 137
CG3198 [DRSC18292] = 217
